For 1 compound, detectable amount results are on record in patent US4238472A, “Radioimmunoassay for chlorinated dibenzo-p-dioxins” (priority 1978, dated 1980).

The subject of the data set is antisera GC-5 and F-12. Kind of data set: Detection of 2,3,7,8-TCDD in spiked, sandy soil samples by radioimmunoassay. The arrangement: species or system rabbit. The following applies: antiserum dilution binding 33% of hapten.

The compound `Clc1cc2c(cc1Cl)Oc1cc(Cl)c(Cl)cc1O2` [2,3,7,8-TCDD, 2,3,7,8-tetrachlorodibenzo-p-dioxin] came in with a detectable amount ("Cutscum", either antiserum) of 0.7 picomole and a detectable amount ("Triton X-305" replacing "Cutscum") of 0.08 picomole.
